# Laboratory results as given in PMC3499583.
# No constants are given. Whether binding was seen depends on the method and setting.
# Molecular target: T1, Semaphorin-7A Sema domain, biotinylated bait (human) (UniProt O75326)
# T1 sequence (chain, biotin on the C-terminal biotinylatable peptide (enzymatic, BirA)): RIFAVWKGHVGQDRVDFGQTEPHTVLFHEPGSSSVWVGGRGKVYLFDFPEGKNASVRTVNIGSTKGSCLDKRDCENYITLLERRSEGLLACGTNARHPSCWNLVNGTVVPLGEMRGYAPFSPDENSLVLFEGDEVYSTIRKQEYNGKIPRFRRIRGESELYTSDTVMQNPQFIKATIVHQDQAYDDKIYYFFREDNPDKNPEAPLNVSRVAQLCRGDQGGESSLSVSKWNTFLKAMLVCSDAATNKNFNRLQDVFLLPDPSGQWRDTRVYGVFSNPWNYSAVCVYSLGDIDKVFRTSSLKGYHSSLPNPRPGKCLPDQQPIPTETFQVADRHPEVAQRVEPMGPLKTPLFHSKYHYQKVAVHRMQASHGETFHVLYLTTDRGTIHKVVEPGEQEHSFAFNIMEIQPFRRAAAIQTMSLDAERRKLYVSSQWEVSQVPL
# Experiment: AVEXIS (avidity-based extracellular interaction screen); biotinylated baits (dialysed against HBS) immobilised in streptavidin-coated 96-well plates; normalised pentameric beta-lactamase preys added for 1 hour at room temperature, washed in HBS plus 0.1% Tween-20; nitrocefin, absorbance at 485 nm; only the target purified
substance,measurement,value
"MTRAP ectodomain, pentameric beta-lactamase-tagged prey (P. falciparum) (domain or fragment)",binding,no binding
